Literature values as cited in patent US9795567B2, “Immediate release formulations and dosage forms of gamma-hydroxybutyrate” (Jazz Pharmaceuticals, Inc., priority 2008, dated 2017).
At least one structure is not confirmed: it was looked up by name or label, or the drawing left a doubt.

How the values were obtained:
[1] = system: patients suffering from disorders of disturbed sleep, including narcolepsy; details: patients with disturbed sleep; cited from earlier work
[2] = system: non-narcoleptic patients with fibromyalgia; details: over all 4 weeks of treatment, eleven patients; cited from earlier work

O=C(O)CCCO [GHB, gamma-hydroxybutyrate]
effect on nocturnal sleep [1]: increase total nocturnal sleep time, decrease nocturnal awakenings and increase Stage 3-4 (slow wave) sleep | subjective assessments of pain and fatigue versus baseline [2]: significant improvements in the subjective assessments of their levels of pain and fatigue
